From patent US20150361165A1 (SYDDANSK UNIVERSITET, published 2015)
Results are given in words; binding and its absence hold for the method and conditions named. For some assays here: Binding seen in cells or lysates may run through a third protein. Some binding calls cover weakened binding; strength is not graded here.

Amino acid sequences for entries named in this document (tags omitted). A change or cut given only in a name is not applied to a line headed by its entry. Residues count along the entry.
UniProt P02453: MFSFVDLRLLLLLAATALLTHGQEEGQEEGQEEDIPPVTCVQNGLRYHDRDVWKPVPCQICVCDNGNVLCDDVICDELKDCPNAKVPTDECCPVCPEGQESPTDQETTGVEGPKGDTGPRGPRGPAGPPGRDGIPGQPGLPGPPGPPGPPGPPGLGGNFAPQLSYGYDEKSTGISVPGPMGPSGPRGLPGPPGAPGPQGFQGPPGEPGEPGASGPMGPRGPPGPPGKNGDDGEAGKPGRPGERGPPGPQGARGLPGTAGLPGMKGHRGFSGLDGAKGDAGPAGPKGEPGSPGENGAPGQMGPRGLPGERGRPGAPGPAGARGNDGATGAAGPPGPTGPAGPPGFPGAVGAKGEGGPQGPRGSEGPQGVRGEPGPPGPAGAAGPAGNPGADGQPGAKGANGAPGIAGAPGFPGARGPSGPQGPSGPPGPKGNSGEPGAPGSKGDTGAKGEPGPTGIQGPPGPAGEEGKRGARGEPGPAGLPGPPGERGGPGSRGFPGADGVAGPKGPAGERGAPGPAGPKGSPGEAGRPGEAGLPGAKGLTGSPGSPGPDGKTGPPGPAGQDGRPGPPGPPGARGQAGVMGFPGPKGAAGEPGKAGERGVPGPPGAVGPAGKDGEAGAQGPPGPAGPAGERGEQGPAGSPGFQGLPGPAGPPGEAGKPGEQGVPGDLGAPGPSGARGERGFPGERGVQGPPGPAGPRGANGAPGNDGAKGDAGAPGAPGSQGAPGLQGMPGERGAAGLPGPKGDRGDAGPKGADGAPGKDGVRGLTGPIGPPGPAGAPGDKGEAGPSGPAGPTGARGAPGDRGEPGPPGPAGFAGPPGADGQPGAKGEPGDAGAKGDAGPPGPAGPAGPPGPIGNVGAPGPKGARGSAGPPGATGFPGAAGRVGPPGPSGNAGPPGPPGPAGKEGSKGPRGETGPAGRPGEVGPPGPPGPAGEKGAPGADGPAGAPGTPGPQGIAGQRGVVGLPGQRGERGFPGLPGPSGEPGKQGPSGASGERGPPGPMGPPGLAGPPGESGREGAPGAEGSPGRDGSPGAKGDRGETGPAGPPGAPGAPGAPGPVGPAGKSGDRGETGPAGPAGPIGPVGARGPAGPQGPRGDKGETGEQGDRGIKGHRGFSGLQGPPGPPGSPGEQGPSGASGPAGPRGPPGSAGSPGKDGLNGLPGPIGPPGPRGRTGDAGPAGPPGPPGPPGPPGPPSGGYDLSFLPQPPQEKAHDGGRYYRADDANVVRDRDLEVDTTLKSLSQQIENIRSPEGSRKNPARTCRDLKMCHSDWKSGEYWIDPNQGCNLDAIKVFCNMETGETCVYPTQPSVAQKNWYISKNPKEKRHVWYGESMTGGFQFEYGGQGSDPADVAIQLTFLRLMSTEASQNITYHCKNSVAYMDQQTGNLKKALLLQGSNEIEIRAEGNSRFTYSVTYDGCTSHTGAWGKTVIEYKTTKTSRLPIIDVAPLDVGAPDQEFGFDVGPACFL
UniProt P02465: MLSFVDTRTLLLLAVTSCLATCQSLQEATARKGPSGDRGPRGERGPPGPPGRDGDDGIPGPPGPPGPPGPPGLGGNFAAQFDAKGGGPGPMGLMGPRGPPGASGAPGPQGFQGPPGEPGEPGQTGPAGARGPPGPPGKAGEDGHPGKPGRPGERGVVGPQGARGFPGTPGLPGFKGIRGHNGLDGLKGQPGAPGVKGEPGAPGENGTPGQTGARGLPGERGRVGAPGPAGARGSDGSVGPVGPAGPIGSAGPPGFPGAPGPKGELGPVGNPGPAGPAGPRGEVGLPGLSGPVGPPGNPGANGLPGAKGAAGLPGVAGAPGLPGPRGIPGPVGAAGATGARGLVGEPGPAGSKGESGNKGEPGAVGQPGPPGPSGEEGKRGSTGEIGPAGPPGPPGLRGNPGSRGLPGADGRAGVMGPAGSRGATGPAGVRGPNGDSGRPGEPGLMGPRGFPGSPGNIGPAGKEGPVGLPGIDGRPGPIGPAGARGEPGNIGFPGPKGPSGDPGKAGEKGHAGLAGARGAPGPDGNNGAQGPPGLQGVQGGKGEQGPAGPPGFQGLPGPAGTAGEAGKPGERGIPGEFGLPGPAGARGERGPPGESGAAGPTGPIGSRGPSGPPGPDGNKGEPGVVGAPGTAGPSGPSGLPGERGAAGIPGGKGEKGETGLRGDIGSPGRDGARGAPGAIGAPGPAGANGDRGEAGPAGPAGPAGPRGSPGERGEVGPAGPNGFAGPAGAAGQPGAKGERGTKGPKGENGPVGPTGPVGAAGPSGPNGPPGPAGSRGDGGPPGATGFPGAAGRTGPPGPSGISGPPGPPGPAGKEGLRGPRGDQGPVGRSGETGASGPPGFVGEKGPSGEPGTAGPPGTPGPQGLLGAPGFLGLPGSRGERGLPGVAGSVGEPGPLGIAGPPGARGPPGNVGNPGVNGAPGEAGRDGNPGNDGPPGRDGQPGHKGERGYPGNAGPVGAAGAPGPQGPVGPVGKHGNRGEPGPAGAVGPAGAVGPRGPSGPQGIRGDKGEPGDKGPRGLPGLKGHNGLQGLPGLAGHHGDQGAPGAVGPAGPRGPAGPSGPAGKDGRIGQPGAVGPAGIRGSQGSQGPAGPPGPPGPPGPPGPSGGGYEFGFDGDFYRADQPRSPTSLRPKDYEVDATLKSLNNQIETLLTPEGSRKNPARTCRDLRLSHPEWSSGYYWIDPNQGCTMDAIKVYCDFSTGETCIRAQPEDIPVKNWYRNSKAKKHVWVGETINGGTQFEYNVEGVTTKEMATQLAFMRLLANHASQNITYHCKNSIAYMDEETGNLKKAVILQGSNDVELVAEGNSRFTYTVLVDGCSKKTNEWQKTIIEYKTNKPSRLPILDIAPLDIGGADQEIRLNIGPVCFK
UniProt P04985, residues 27-747: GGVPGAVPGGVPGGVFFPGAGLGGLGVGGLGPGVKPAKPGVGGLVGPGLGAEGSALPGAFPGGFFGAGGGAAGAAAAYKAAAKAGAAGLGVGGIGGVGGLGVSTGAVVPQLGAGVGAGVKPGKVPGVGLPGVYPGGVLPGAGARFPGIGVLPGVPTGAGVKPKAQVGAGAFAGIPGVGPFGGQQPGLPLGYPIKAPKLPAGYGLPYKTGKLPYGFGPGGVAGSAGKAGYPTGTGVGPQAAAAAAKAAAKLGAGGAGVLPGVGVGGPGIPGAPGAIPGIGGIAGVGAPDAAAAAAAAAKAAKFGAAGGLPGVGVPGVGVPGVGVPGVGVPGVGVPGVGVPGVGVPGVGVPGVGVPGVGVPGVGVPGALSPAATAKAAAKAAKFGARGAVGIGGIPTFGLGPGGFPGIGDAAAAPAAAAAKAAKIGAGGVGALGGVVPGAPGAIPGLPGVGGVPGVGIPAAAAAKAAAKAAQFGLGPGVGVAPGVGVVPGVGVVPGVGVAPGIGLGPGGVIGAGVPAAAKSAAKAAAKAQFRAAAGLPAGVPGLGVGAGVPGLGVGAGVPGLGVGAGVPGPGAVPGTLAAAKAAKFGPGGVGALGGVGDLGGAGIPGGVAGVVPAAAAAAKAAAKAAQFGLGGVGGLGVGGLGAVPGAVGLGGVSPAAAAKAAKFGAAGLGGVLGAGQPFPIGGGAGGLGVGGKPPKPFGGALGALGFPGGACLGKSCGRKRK
UniProt P06756: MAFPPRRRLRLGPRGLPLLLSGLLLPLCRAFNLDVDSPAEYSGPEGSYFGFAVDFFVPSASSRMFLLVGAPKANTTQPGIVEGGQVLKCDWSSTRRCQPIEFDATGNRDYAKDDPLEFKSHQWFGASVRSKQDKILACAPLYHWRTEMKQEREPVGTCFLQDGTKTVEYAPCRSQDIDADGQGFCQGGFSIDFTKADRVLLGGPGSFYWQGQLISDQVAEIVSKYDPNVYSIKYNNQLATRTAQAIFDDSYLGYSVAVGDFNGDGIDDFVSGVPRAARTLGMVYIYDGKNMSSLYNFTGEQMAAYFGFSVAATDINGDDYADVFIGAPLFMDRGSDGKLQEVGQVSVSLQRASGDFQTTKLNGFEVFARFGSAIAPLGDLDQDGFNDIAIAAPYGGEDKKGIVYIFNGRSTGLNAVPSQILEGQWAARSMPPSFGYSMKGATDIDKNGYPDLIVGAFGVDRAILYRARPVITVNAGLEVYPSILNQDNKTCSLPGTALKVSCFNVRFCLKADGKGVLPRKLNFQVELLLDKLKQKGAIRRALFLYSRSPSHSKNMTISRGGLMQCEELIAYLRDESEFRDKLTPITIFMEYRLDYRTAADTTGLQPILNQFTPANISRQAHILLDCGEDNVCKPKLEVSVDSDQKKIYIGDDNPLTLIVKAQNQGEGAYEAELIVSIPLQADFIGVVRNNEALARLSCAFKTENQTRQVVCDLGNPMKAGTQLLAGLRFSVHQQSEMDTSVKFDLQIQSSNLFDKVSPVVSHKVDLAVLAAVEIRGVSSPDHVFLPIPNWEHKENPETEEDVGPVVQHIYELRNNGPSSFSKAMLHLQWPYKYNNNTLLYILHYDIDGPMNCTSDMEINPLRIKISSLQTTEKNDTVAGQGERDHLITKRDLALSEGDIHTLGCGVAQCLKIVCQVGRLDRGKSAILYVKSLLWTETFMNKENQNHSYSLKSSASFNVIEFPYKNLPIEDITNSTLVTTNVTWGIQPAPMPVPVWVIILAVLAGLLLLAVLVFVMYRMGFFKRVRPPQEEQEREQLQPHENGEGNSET
UniProt P18084: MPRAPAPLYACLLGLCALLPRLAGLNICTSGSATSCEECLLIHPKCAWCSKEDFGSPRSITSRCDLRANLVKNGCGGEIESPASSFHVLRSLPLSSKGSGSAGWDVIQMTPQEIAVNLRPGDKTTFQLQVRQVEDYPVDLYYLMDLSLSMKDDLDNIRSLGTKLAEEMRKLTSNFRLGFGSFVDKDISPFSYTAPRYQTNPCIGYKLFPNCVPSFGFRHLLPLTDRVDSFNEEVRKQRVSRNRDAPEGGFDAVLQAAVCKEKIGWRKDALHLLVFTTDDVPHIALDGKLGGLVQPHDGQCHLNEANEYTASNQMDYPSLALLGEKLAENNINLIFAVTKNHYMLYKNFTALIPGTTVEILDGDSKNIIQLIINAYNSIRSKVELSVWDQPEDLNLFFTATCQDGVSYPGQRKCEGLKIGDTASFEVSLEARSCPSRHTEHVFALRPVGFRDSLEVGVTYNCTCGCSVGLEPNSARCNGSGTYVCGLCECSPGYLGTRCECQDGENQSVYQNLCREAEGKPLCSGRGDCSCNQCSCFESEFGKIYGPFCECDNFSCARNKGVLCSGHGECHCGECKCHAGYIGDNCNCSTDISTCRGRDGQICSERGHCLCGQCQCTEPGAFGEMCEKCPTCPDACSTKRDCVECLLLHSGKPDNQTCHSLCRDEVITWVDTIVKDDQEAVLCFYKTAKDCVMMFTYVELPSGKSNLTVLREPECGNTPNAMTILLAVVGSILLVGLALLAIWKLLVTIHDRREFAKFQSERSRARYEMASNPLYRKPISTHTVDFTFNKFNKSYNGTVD

Key:
[1] = target: T1, insoluble type I collagen from bovine Achilles tendon (bovine) (UniProt P02453+P02465); experiment: pull-down by insoluble fibrils, supernatant measured by MFAP4 ELISA (FIG. 2G)
[2] = target: insoluble elastin from bovine aorta (bovine) (UniProt P04985); experiment: as above
[3] = target: integrin αvβ5 on HAoSMCs (human) (UniProt P06756+P18084); experiment: adult HAoSMC line, data not shown
[4] = target: T1, insoluble type I collagen from bovine Achilles tendon (bovine); experiment: pull-down by insoluble fibrils, supernatant measured by MFAP4 ELISA, Ca2+ or EDTA
[5] = target: insoluble elastin from bovine aorta (bovine) (UniProt P04985); experiment: as above

binding [1]: binds
binding [2]: binds
binding [3]: binds
binding [4]: binds
binding [5]: binds
B1: recombinant MFAP4 (rMFAP4), wild-type (ligand, human, UniProt P55083 22-255, looked up)
chain: VSGIRGDALERFCLQQPLDCDDIYAQGYQSDGVYLIYPSGPSVPVPVFCDMTTEGGKWTVFQKRFNGSVSFFRGWNDYKLGFGRADGEYWLGLQNMHLLTLKQKYELRVDLEDFENNTAYAKYADFSISPNAVSAEEDGYTLFVAGFEDGGAGDSLSYHSGQKFSTFDRDQDLFVQNCAALSSGAFWFRSCHFANLNGFYLGGSHLSYANGINWAQWKGFYYSLKRTEMKIRRA
